The source of these data is PubChem BioAssay AID445 (National Center for Advancing Translational Sciences (NCATS), 2006).

The nature of this test: IkB Signaling. Conditions: ABC-DLBCL IkBa-CBG/CBR dual luciferase ratio (green luciferase fused to IkBa over red control in OCI-Ly3 lymphoma cells), 4 h. The gist of the method: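 Curves were fitted separately to fusion (green), unfused (red) and ratio luminescence, then classed by r2, magnitude and activity. Cells: OCI-Ly3, 4 h compound plus doxycycline at 37C; 10 uM MG-132 defined full response.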
Setting [1] is: measured here: control luc red channel unless noted.
[2] abbreviates: measured here: IkB-luc green channel.
[3] abbreviates: measured here: control luc red channel.

The structures appear in SMILES notation. This is one part of the list. Shown are side measurements of this screen, not its main read-out; they come without a call. Compounds called inactive in the main read-out are mostly missing here. Potencies come from curve fits of mixed quality, noted in brackets.

What is called AC50 is the concentration at which the activity in the assay is half-maximal.

In the case of `CCCCc1nn2c(=O)cc(COC(=O)c3cccs3)nc2s1`, the AC50 under setting [1] was 20 µM [falling, partial curve].

Take `Cc1ccc(NC(=O)CSC2=C(C#N)C(c3ccco3)C3=C(CC(C)(C)CC3=O)N2)cc1` (stereo unspecified): under setting [1], the AC50 is 12.6 µM [falling, partial curve].

For the compound `Clc1cccc(-n2ncc3c(N4CCCCCC4)ncnc32)c1`, under setting [1], the AC50 is 39.8 µM [falling, single point].

In the case of `Cc1cc(C(=O)N2CCN(c3cc(Cl)ccc3C)CC2)c2c(C)nn(-c3ccccc3)c2n1`, the AC50 under setting [1] is 12.6 µM [falling, partial curve].

As for `Cc1ccc(CNC(=O)c2cccc(Nc3nc4ccccc4n4nnnc34)c2)cc1`, under setting [1], the AC50 was 2.51 µM [falling, full curve].

With `Cn1c(CCNC(=O)c2ccco2)nc2cc(NC(=O)C3CCCCC3)ccc21`, the AC50 under setting [1] was 15.8 µM [falling, partial curve].

For `COc1cc(OC)c(NC(=O)c2c(C)oc3ncnc(N4CCCCC4)c23)cc1Cl`, the AC50 under setting [1] was 39.8 µM [falling, single point].

In the case of `COc1cccc(Nc2ncc3ncc(=O)n(Cc4cccs4)c3n2)c1`, the AC50 by setting is: under setting [2], 2.51 µM [falling, partial curve]; under setting [3], 3.16 µM [falling, partial curve].

For the compound `Cc1ccc(N2CC(NC(=O)Cc3ccc(F)cc3)CC2=O)cc1` (stereo unspecified), the AC50 under setting [1] was 0.316 µM [rising, partial curve].

In the case of `O=C(Cn1c(=O)n(Cc2ccc(C(=O)NCc3ccc4c(c3)OCO4)cc2)c(=O)c2ccccc21)Nc1cccc(Cl)c1`, the AC50 under setting [1] is 3.16 µM [rising, partial curve, poor fit].

For the compound `Cc1noc(-c2ccc(-c3noc(-c4ccccc4)n3)cc2)n1`, the AC50 under setting [1] is 1 µM [rising, single point].

In the case of `CCc1oc2ccccc2c1C(=O)CCN1CCCCC1`, the AC50 under setting [1] was 20 µM [falling, single point].

`O=C(c1ccco1)N1CCN(C(c2cccs2)c2sc3ncnn3c2O)CC1` (stereo unspecified): under setting [1], the AC50 is 5.01 µM [falling, partial curve].

`CCC(C(=O)NCc1ccc2c(c1)CCN2C(=O)c1ccc(F)cc1)c1ccccc1` (stereo unspecified): the AC50 under setting [1] is 25.1 µM [falling, partial curve].

For the compound `CCOC(=O)/C=C/S(=O)(=O)c1ccc(NC(C)=O)cc1`, the AC50 is 7.94 µM [falling, full curve] under setting [2] and 5.01 µM [falling, partial curve] under setting [3].

In the case of `CCOc1ccc(C(=O)NCCn2cc(SCC(=O)Nc3cc(C)on3)c3ccccc32)cc1`, the AC50 under setting [1] was 12.6 µM [falling, partial curve].

Take `CC(=O)c1cc(-c2ccccc2)n(CCC(=O)Nc2nc3c(C)cccc3s2)c1C`: the AC50 under setting [1] is 10 µM [rising, partial curve].

`CC1CCN(S(=O)(=O)c2ccc3[nH]cc(C(=O)NCc4ccc(F)cc4)c(=O)c3c2)CC1`: under setting [1], the AC50 was 7.94 µM [rising, full curve, poor fit].

Consider `Cc1n[nH]c(C)c1N1C(=O)c2cccc3c(N4CCCCCC4)ccc(c23)C1=O`, for which the AC50 under setting [1] is 25.1 µM [falling, partial curve].

With `CCN1C(=O)CC(C(=O)Nc2ccc(F)cc2)SC1=Nc1ccc2c(c1)OCO2` (stereo unspecified), under setting [1], the AC50 was 25.1 µM [falling, partial curve].

Regarding `CCCCOc1ccc(S(=O)(=O)Nc2cccc(-c3ccc(N4CCOCC4)nn3)c2)cc1`, under setting [1], the AC50 was 15.8 µM [falling, partial curve].

As for `COc1ccccc1-c1nc(NC(C)=O)n[nH]1`, under setting [1], the AC50 is 7.94 µM [falling, partial curve].

Regarding `CC(Sc1nc(-c2ccccc2)c(C#N)c(=O)[nH]1)C(=O)Nc1ccc(F)cc1` (stereo unspecified), the AC50 under setting [1] was 7.94 µM [falling, partial curve].

For the compound `COc1ccc(N(CC(=O)N2CCN(c3cc(C)ccc3C)CC2)S(=O)(=O)c2c(C)noc2C)cc1`, the AC50 under setting [1] was 10 µM [falling, partial curve].

On to `O=C(CSc1ccc(Cl)cc1)c1ccco1`, for which the AC50 under setting [1] was 39.8 µM [rising, single point] [measured here: IkB-luc green channel].

Regarding `CCOC(=O)c1cc(-c2ccc(F)cc2)n(CCC(=O)Nc2ccccc2OC)c1C`, the AC50 under setting [1] was 31.6 µM [falling, partial curve].

For `Cc1ccc(CSc2nc(=O)c3c(C)cc(C)nc3n2C2CC2)cc1`, under setting [1], the AC50 was 39.8 µM [falling, single point].

`c1ccc2nc(-c3nc4ccccc4o3)ccc2c1`: the AC50 under setting [1] was 3.16 µM [falling, full curve].

Take `COC(=O)c1cc(Cl)c(NC(=O)/C=C/c2ccc(Cl)cc2Cl)cc1OC`: the AC50 under setting [1] was 10 µM [falling, partial curve].

On to `COc1ccccc1C(=O)NCCc1nc2ccccc2[nH]1`, for which, under setting [1], the AC50 is 10 µM [falling, partial curve].

Take `Cc1cccc(Oc2nc3c(C)cccn3c(=O)c2/C=C(\C#N)c2nc3ccccc3s2)c1`: under setting [1], the AC50 is 12.6 µM [falling, single point].

On to `CCOc1ccc(N2CC(c3nc4ccccc4n3CCCOc3ccc(OC)cc3)CC2=O)cc1` (stereo unspecified), for which, under setting [1], the AC50 is 15.8 µM [falling, partial curve].

As for `CC(O)CNC(=O)C1CCN(Cc2ccc(OCc3ccccc3)cc2)CC1` (stereo unspecified), the AC50 under setting [1] was 5.01 µM [falling, partial curve].

For the compound `COCCNC(=O)CSc1nnc(-c2ccc(OC)c(OC)c2)c(-c2ccc(OC)c(OC)c2)n1`, the AC50 under setting [1] is 3.16 µM [rising, full curve, poor fit].

For `COC(=O)c1c(NC(=O)c2ccc(S(=O)(=O)N3CCCCC3C)cc2)sc2c1CCN(C(C)C)C2` (stereo unspecified), the AC50 under setting [1] was 20 µM [falling, partial curve].

For the compound `COc1ccc(-c2noc(CSc3nnc(-c4ccncc4)n3-c3ccccc3)n2)cc1`, under setting [1], the AC50 was 25.1 µM [falling, partial curve].

In the case of `Cc1ccccc1-c1noc(CSc2nnc(Cc3ccccc3)n2-c2ccc(F)cc2)n1`, under setting [1], the AC50 was 31.6 µM [falling, partial curve].

In the case of `Nc1c(-c2ccc(Cl)cc2)nnn1-c1ccccc1`, under setting [1], the AC50 is 10 µM [falling, partial curve].

With `CCC(C)n1c(=N)c(S(=O)(=O)c2ccc(C)cc2)cc2c(=O)n3cc(C)ccc3nc21` (stereo unspecified), the AC50 under setting [1] is 0.251 µM [rising, full curve].
